Paper PMC7854729 (Nature Communications, 2021)
“And” between values parts separate entries of the source, which are not always exact repeats. Identical values can stand only once. Like-named read-outs stand apart in the source and are kept apart here. This continues a long series; more values of the same kind are listed elsewhere. Where a SMILES comes first, the peptide text is derived from it.

Biological target: T1, PLpro-WT (Severe acute respiratory syndrome coronavirus 2, UniProt P0DTD1)
T1 construct: PLpro is a domain of Nsp3—a large multidomain protein; made in house; host or cells: E. coli BL21(DE3)-Gold
Type: biochemical

CC(=O)N[C@@H](CC(C)C)C(=O)N[C@@H](CCCCN)C(=O)NCC(=O)NCC(=O)Nc1ccc2c(C)cc(=O)oc2c1 [probe] (HELM PEPTIDE1{[ac].L.K.G.G.[Cc1cc(=O)oc2cc(N[*:1])ccc12]}$$$$V2.0)
fluorescence normalised to probe only (0.3 M PLP, time point 23): 19.75 and 19.9792 and 21.3125
fluorescence (0.3 M PLP, time point 24): 972 and 989 and 1060
fluorescence normalised to probe only (0.3 M PLP, time point 24): 20.25 and 20.6042 and 22.0833
fluorescence (0.3 M PLP, time point 25): 1013 and 1022 and 1082
fluorescence normalised to probe only (0.3 M PLP, time point 25): 21.1042 and 21.2917 and 22.5417
fluorescence (0.3 M PLP, time point 26): 1028 and 1039 and 1111
fluorescence normalised to probe only (0.3 M PLP, time point 26): 21.4167 and 21.6458 and 23.1458
fluorescence (0.3 M PLP, time point 27): 1059 and 1068 and 1137
fluorescence normalised to probe only (0.3 M PLP, time point 27): 22.0625 and 22.25 and 23.6875
fluorescence (0.3 M PLP, time point 28): 1077 and 1085 and 1174
fluorescence normalised to probe only (0.3 M PLP, time point 28): 22.4375 and 22.6042 and 24.4583
fluorescence (0.3 M PLP, time point 29): 1103 and 1112 and 1201
fluorescence normalised to probe only (0.3 M PLP, time point 29): 22.9792 and 23.1667 and 25.0208
fluorescence (0.3 M PLP, time point 30): 1128 and 1137 and 1218
fluorescence normalised to probe only (0.3 M PLP, time point 30): 23.5 and 23.6875 and 25.375
fluorescence (0.3 M PLP, time point 31): 1146 and 1159 and 1248
fluorescence normalised to probe only (0.3 M PLP, time point 31): 23.875 and 24.1458 and 26
fluorescence (0.3 M PLP, time point 32): 1167 and 1179 and 1275
fluorescence normalised to probe only (0.3 M PLP, time point 32): 24.3125 and 24.5625 and 26.5625
fluorescence (0.3 M PLP, time point 33): 1198 and 1206 and 1310
fluorescence normalised to probe only (0.3 M PLP, time point 33): 24.9583 and 25.125 and 27.2917
fluorescence (0.3 M PLP, time point 34): 1215 and 1226 and 1328
fluorescence normalised to probe only (0.3 M PLP, time point 34): 25.3125 and 25.5417 and 27.6667
fluorescence (0.3 M PLP, time point 35): 1238 and 1249 and 1339
fluorescence normalised to probe only (0.3 M PLP, time point 35): 25.7917 and 26.0208 and 27.8958
fluorescence (0.3 M PLP, time point 36): 1264 and 1272 and 1373
fluorescence normalised to probe only (0.3 M PLP, time point 36): 26.3333 and 26.5 and 28.6042
fluorescence (0.3 M PLP, time point 37): 1285 and 1290 and 1393
fluorescence normalised to probe only (0.3 M PLP, time point 37): 26.7708 and 26.875 and 29.0208
fluorescence (0.3 M PLP, time point 38): 1306 and 1311 and 1412
fluorescence normalised to probe only (0.3 M PLP, time point 38): 27.2083 and 27.3125 and 29.4167
fluorescence (0.5 M PLP, time point 1): 207 and 209
fluorescence normalised to probe only (0.5 M PLP, time point 1): 4.3125 and 4.354
fluorescence (0.5 M PLP, time point 2): 318 and 315 and 316
fluorescence normalised to probe only (0.5 M PLP, time point 2): 6.625 and 6.5625 and 6.583
fluorescence (0.5 M PLP, time point 3): 425 and 423 and 418
fluorescence normalised to probe only (0.5 M PLP, time point 3): 8.854 and 8.8125 and 8.708
fluorescence (0.5 M PLP, time point 4): 524 and 522
fluorescence normalised to probe only (0.5 M PLP, time point 4): 10.9167 and 10.875
fluorescence (0.5 M PLP, time point 5): 617 and 622 and 614
fluorescence normalised to probe only (0.5 M PLP, time point 5): 12.8542 and 12.9583 and 12.7917
fluorescence (0.5 M PLP, time point 6): 716 and 715 and 708
fluorescence normalised to probe only (0.5 M PLP, time point 6): 14.9167 and 14.8958 and 14.75
fluorescence (0.5 M PLP, time point 7): 805 and 803 and 798
fluorescence normalised to probe only (0.5 M PLP, time point 7): 16.7708 and 16.7292 and 16.625
fluorescence normalised to probe only (0.5 M PLP, time point 14): 28.2917 and 27.6458
fluorescence (0.5 M PLP, time point 15): 1412 and 1425 and 1395
fluorescence normalised to probe only (0.5 M PLP, time point 15): 29.4167 and 29.6875 and 29.0625
fluorescence (0.5 M PLP, time point 16): 1484 and 1493 and 1454
fluorescence normalised to probe only (0.5 M PLP, time point 16): 30.9167 and 31.1042 and 30.2917
fluorescence (0.5 M PLP, time point 17): 1539 and 1557 and 1517
fluorescence normalised to probe only (0.5 M PLP, time point 17): 32.0625 and 32.4375 and 31.6042
fluorescence (0.5 M PLP, time point 18): 1594 and 1610 and 1580
fluorescence normalised to probe only (0.5 M PLP, time point 18): 33.2083 and 33.5417 and 32.9167
fluorescence (0.5 M PLP, time point 19): 1654 and 1673 and 1634
fluorescence normalised to probe only (0.5 M PLP, time point 19): 34.4583 and 34.8542 and 34.0417
fluorescence (0.5 M PLP, time point 20): 1711 and 1730 and 1689
fluorescence normalised to probe only (0.5 M PLP, time point 20): 35.6458 and 36.0417 and 35.1875
fluorescence (0.5 M PLP, time point 21): 1764 and 1785 and 1742
fluorescence normalised to probe only (0.5 M PLP, time point 21): 36.75 and 37.1875 and 36.2917
fluorescence (0.5 M PLP, time point 22): 1821 and 1835 and 1797
fluorescence normalised to probe only (0.5 M PLP, time point 22): 37.9375 and 38.2292 and 37.4375
fluorescence (0.5 M PLP, time point 23): 1880 and 1890 and 1848
fluorescence normalised to probe only (0.5 M PLP, time point 23): 39.1667 and 39.375 and 38.5
fluorescence (0.5 M PLP, time point 24): 1924 and 1943 and 1901
fluorescence normalised to probe only (0.5 M PLP, time point 24): 40.0833 and 40.4792 and 39.6042
fluorescence (0.5 M PLP, time point 25): 1964 and 1992 and 1948
fluorescence normalised to probe only (0.5 M PLP, time point 25): 40.9167 and 41.5 and 40.5833
fluorescence (0.5 M PLP, time point 26): 2017 and 2029 and 1997
fluorescence normalised to probe only (0.5 M PLP, time point 26): 42.0208 and 42.2708 and 41.6042
fluorescence (0.5 M PLP, time point 27): 2061 and 2083 and 2030
fluorescence normalised to probe only (0.5 M PLP, time point 27): 42.9375 and 43.3958 and 42.2917
fluorescence (0.5 M PLP, time point 28): 2102 and 2125 and 2079
fluorescence normalised to probe only (0.5 M PLP, time point 28): 43.7917 and 44.2708 and 43.3125
fluorescence (0.5 M PLP, time point 29): 2139 and 2169 and 2111
fluorescence normalised to probe only (0.5 M PLP, time point 29): 44.5625 and 45.1875 and 43.9792
fluorescence (0.5 M PLP, time point 30): 2187 and 2206 and 2147
fluorescence normalised to probe only (0.5 M PLP, time point 30): 45.5625 and 45.9583 and 44.7292
